Measured values taken from patent publication US20230374071A1 (Dignify Therapeutics, LLC, priority 2020, published 2023).
Non-standard residues stand in square brackets, D forms with d. No end group written: not given here. Nle = CCCC[C@H](N)C(=O)O; βAla = NCCC(=O)O

Test: peptide made by a vendor (Fmoc solid-phase peptide synthesis)
Details: whole synthesis

For Asp-Arg-Phe-Val-gc-Nle-NH2, which “final HPLC purity” value is on record?
Its value is 97.4%.

For Asp-Lys-Phe-Val-gc-Nle-NH2, which “final HPLC purity” value is on record?
The value was 97.9%.

With “H-DSFV[βAla]L[Nle]-NH2 (N-terminus assumed; SMILES CCCC[C@H](NC(=O)[C@H](CC(C)C)NC(=O)CCNC(=O)[C@@H](NC(=O)[C@H](Cc1ccccc1)NC(=O)[C@H](CO)NC(=O)[C@@H](N)CC(=O)O)C(C)C)C(N)=O)” as the substance, how does the “final HPLC purity” value read?
The value was 95.0%.

With Asp-Ser-Phe-Val-gc-Met-NH2 as the substance, how does the “final HPLC purity” value read?
Its value is 96.7%.

For Lys-Asp-Ser-Phe-Val-gc-Nle-NH2, which “final HPLC purity” value is on record?
The value was 98.3%.

Which “final HPLC purity” value does the source give for Asp-Arg-Phe-Val-gc-Met-NH2 here?
Its value is 97.2%.

For Asp-Ser-Phe-Val-gc-Nle-NH2, which “final HPLC purity” value is on record?
Its value is 96.3%.

With “H-KDSFV[βAla]LM-NH2 (N-terminus assumed; SMILES CSCC[C@H](NC(=O)[C@H](CC(C)C)NC(=O)CCNC(=O)[C@@H](NC(=O)[C@H](Cc1ccccc1)NC(=O)[C@H](CO)NC(=O)[C@H](CC(=O)O)NC(=O)[C@@H](N)CCCCN)C(C)C)C(N)=O)” as the substance, how does the “final HPLC purity” value read?
The value was 97.0%.

For KDSFV[βAla]L[Nle]-NH2, which “final HPLC purity” value is on record?
Its value is 98.6%.

With Asp-Lys-Phe-Val-gc-Met-NH2 as the substance, how does the “final HPLC purity” value read?
The value was 97.3%.
